# Measured values reported in paper PMC12431657, “Discovery and mechanistic insights of dibenzoylmethane as a broad spectrum inhibitor of coronavirus” (PLOS Pathogens, 2025).
# Like-named read-outs stand apart in the source and are kept apart here. About 95 (3%) of roughly 3,300 compounds showed an effect of 50% or more. The list shows a part of the results.
# Test system: HCoV-229E
# Design: species or system Huh-7; HTS, protection from HCoV-229E induced cell death, luminescent cell viability (CellCounting-Lite 2.0), inhibition rate
# Conditions: 24 h post infection, 1 h compound pre-incubation, 10 µM, inhibitor
SMILES,229E Inhibition rate,"229E Inhibition rate (229E Inhibition rate, 24 h)"
COc1cc2ccc(=O)oc2c(OC)c1O [Isofraxidin],31%,
C1CCN2C[C@H]3C[C@H](CN4CCCC[C@@H]34)[C@H]2C1 [(+)-Sparteine (sulfate pentahydrate)],,17.2%
CC(C)=CCc1cc(-c2coc3cc(O)ccc3c2=O)ccc1O [Neobavaisoflavone],0%,
c1ccc2c(-c3nccs3)c[nH]c2c1 [Camalexin],15.6%,
CCCCCCCCC(=O)OCC [Ethyl nonanoate],11.4%,
Cc1ncc([N+](=O)[O-])n1CCO [Metronidazole],35.8%,
O=C(/C=C/c1ccc(O)c2c1[C@H](C(=O)O[C@H](Cc1ccc(O)c(O)c1)C(=O)O)[C@@H](c1ccc(O)c(O)c1)O2)O[C@H](Cc1ccc(O)c(O)c1)C(=O)O [Magnesium Lithospermate B],6.1%,
CC1(C)CCC[C@](C)([C@H]2CC[C@]3(C)[C@@H]2[C@H](O)C[C@@H]2[C@@]4(C)CC[C@H](O)C(C)(C)[C@@H]4CC[C@]23C)O1 [Panaxadiol],13%,
O=C(O)CCC(=O)O [Disodium succinate],,8.4%
CC1=C(/C=C/C(C)=C/C=C/C(C)=C/C(=O)O)C(C)(C)CCC1=O [all-trans-4-Oxoretinoic acid],11.5%,
C=CC[C@@H]1/C=C(\C)C[C@H](C)C[C@H](OC)[C@H]2O[C@@](O)(C(=O)C(=O)N3CCCC[C@H]3C(=O)O[C@H](/C(C)=C/[C@@H]3CC[C@@H](O)[C@H](OC)C3)[C@H](C)[C@@H](O)CC1=O)[C@H](C)C[C@@H]2OC [Tacrolimus (monohydrate)],31.6%,
COc1ccc2[nH]cc(CCNC(C)=O)c2c1 [Melatonin],45.9%,
O=C(CCc1ccc(O)cc1)c1c(O)cc(O[C@@H]2O[C@H](CO)[C@@H](O)[C@H](O)[C@H]2O)cc1O [Trilobatin],12.6%,
NC[C@H]1O[C@H](O[C@H]2[C@H](O[C@@H]3O[C@H](CO)[C@@H](O)[C@H]3O)[C@@H](O)[C@H](N)C[C@@H]2N)[C@H](N)[C@@H](O)[C@@H]1O [Ribostamycin (sulfate)],15.2%,
CC(=O)O[C@H]1C[C@@]2(C)[C@@H](C[C@H]1O)C(=O)C=C1[C@@H]2CC[C@]2(C)[C@@H]([C@@](C)(O)[C@H](O)CCC(C)(C)O)CC[C@@]12O [2-O-Acetyl-20-hydroxyecdysone],0%,
CC1=C2[C@@H](OC1=O)[C@H](O)[C@]13[C@H]4C[C@@H](C(C)(C)C)[C@]15[C@@H](OC(=O)[C@@H]5O)O[C@@]23C(=O)O4 [Ginkgolide K],62%,
COc1ccc(C(=O)O[C@H]2[C@H](O[C@@H]3[C@@H](OC(C)=O)[C@H](O[C@H]4C[C@H]5[C@@H]6CC=C7C[C@@H](O)CC[C@]7(C)[C@H]6CC[C@]5(C)[C@@]4(O)[C@H](C)C(=O)CCC(C)C)OC[C@@H]3O)OC[C@@H](O)[C@@H]2O)cc1 [OSW-1],14.3%,
NCCS(=O)(=O)O [Taurine],10.7%,
O=C(O[C@@H]1Cc2c(O)cc(O)cc2O[C@H]1c1ccc(O)c(O)c1)c1cc(O)c(O)c(O)c1 [(-)-Catechin gallate],30%,
O=CNCC(=O)O [N-Formylglycine],18.6%,

SMILES,229E Inhibition rate,"229E Inhibition rate (229E Inhibition rate, 24 h)"
C[C@@H]1O[C@@H](O[C@H]2[C@H](OC(=O)[C@]34CCC(C)(C)C[C@H]3C3=CC[C@@H]5[C@@]6(C)C[C@H](O)[C@H](O[C@@H]7O[C@H](CO)[C@@H](O)[C@H](O)[C@H]7O)[C@](CO)(C(=O)O)[C@@H]6CC[C@@]5(C)[C@]3(C)C[C@H]4O)OC[C@H](O)[C@@H]2O)[C@H](O)[C@H](O)[C@H]1O[C@@H]1OC[C@@H](O)[C@H](O[C@@H]2OC[C@](O)(CO)[C@H]2O)[C@H]1O [Platyconic acid A],30.2%,
COC(=O)[C@@H]1[C@H]2C[C@H]3c4[nH]c5ccccc5c4CCN3C[C@@H]2CC[C@@H]1O [Yohimbine],,50.5%
COc1ccc(-c2cc(=O)c3c(O)cc(O)cc3o2)cc1 [Acacetin],12.6%,
CC(=O)N[C@@H](CC(=O)N[C@@H](CCC(=O)O)C(=O)O)C(=O)O [Spaglumic Acid],11%,
O=c1c(O)cccc2cc(O)c(O)c(O)c12 [Purpurogallin],14.6%,
NC1CCCNC1=O (centres unmarked) [3-Amino-2-piperidinone],6.1%,
O=C(O)c1cc2ccccc2[nH]1 [Indole-2-carboxylic acid],12.3%,
Oc1cc(O)c2ccc(-c3ccc(O)c(O)c3)[o+]c2c1 [Luteolinidin (chloride)],44.9%,
O=c1c(O)c(-c2cc(O)c(O)c(O)c2)oc2cc(O)cc(O)c12 [Myricetin],0%,
OC[C@@H](O)[C@@H](O)[C@@H](O)[C@@H](O)CO [Allitol],7.5%,
Nc1nc(=O)c2[nH]c(=O)cnc2[nH]1 [Xanthopterin (hydrate)],48.2%,
COc1ccc(-c2cc(=O)c3c(OC)cc(OC)c(OC)c3o2)cc1 [6-Demethoxytangeretin],9.8%,
"CC1CC[C@@]2(OC1)O[C@H]1C[C@H]3[C@@H]4CC=C5C[C@@H](O)C[C@@H](O)[C@]5(C)[C@H]4CC[C@]3(C)[C@H]1[C@@H]2C (stereo partly drawn) [25(R,S)-Ruscogenin]",11.9%,
C/C=C1\C[C@@H](C)[C@](O)(CO)C(=O)OCC2=CCN3CC[C@@H](OC1=O)[C@@H]23 [Usaramine],10.5%,
C[C@H]1[C@@H](O)O[C@@H]2O[C@@]3(C)CC[C@H]4[C@H](C)CC[C@@H]1[C@@]24OO3 [Dihydroartemisinin],30.5%,
COc1ccc(-c2oc3c(CC=C(C)C)c(O[C@@H]4O[C@H](CO)[C@@H](O)[C@H](O)[C@H]4O)cc(O)c3c(=O)c2O[C@@H]2O[C@@H](C)[C@H](O)[C@@H](O)[C@H]2O)cc1 [Icariin],36.8%,
O=C(O)/C=C/c1c[nH]c2ccccc12 [trans-3-Indoleacrylic acid],7.1%,
COc1c(O[C@@H]2O[C@H](CO)[C@@H](O)[C@H](O)[C@H]2O)cc2c(c1O)C(=O)c1c(cc(C)c(O)c1OC)C2=O [Aurantio-obtusin β-D-glucoside],27.4%,
CCn1cc(C(=O)O)c(=O)c2ccc(C)nc21 [Nalidixic acid],0%,
CC(C)=C[C@H]1C[C@](C)(O)[C@@H]2[C@H]3CC[C@@H]4[C@@]5(C)CC[C@H](O[C@@H]6OC[C@H](O)[C@H](O[C@@H]7O[C@H](CO)[C@@H](O)[C@H](O)[C@H]7O)[C@H]6O[C@@H]6O[C@@H](CO)[C@H](O)[C@H]6O)C(C)(C)[C@@H]5CC[C@@]4(C)[C@@]34CO[C@@]2(C4)O1 [Bacopaside X],12.2%,

SMILES,229E Inhibition rate,"229E Inhibition rate (229E Inhibition rate, 24 h)"
O=C(O)CCC(=O)OC[C@@H](NC(=O)C(Cl)Cl)[C@H](O)c1ccc([N+](=O)[O-])cc1 [Chloramphenicol succinate (sodium)],54%,
C[C@@H]1CCCC2=CC(=O)[C@@H]3[C@@H](C3(C)C)[C@]21C [Aristolone],29.3%,
O[C@H]1[C@H](O)[C@@H](O)[C@H](O)[C@@H](O)[C@@H]1O [Scyllo-Inositol],12.7%,
O=C(O)C#Cc1ccccc1 [Phenylpropiolic acid],44.9%,
"CC(=O)[C@H]1CC[C@H]2[C@@H]3CC[C@H]4CC(=O)CC[C@]4(C)[C@H]3CC[C@]12C [5a-Pregnane-3,20-dione]",29.5%,
C[C@]12CC[C@@H]3c4ccc(OS(=O)(=O)O)cc4CC[C@H]3[C@@H]1CCC2=O [Estropipate],,9.1%
Nc1ccc(C(=O)NCC(=O)O)cc1 [4-Aminohippuric acid],23.6%,
O=c1c(-c2ccc(O)cc2)coc2cc(O[C@@H]3O[C@H](CO)[C@@H](O)[C@H](O)[C@H]3O)cc(O)c12 [Genistin],0%,
COc1cc(C)ccc1O [Creosol],10.7%,
"COc1ccc(OC)cc1 [1,4-Dimethoxybenzene]",21%,
OC[C@H]1OC(O)[C@@H](O)[C@@H](O)[C@@H]1O (stereo partly drawn) [D-Mannose],10%,
COc1ccc(C[C@@H]2c3cc(Oc4cc(C[C@@H]5c6cc(O)c(OC)cc6CCN5C)ccc4O)c(OC)cc3CCN2C)cc1 [Isoliensinine],27.3%,
O=c1ccn([C@H]2C[C@H](O)[C@@H](COP(=O)(O)O)O2)c(=O)[nH]1 [2'-Deoxyuridine 5'-monophosphate (disodium)],12.5%,
CCCCCC/C=C\CCCCCCCCCc1cccc(O)c1C(=O)O [Ginkgolic acid C17:1],19.4%,
OC[C@H]1O[C@@H](Oc2ccc(O)cc2)[C@H](O)[C@@H](O)[C@@H]1O [Arbutin],9.2%,
C=C(C)[C@@H]1CC=C(CO)CC1 [Perillyl alcohol],,36.2%
"COc1cc(/C=C/C(=O)O)cc(OC)c1OC [3,4,5-Trimethoxycinnamic acid]",11.8%,
C/C=C/c1cc(OC)c2c(c1)C(C)C(c1ccc(O)c(OC)c1)O2 (centres unmarked) [Dehydrodiisoeugenol],31.8%,
COC(=O)C1=CO[C@@H](O[C@@H]2O[C@H](CO)[C@@H](O)[C@H](O)[C@H]2O)[C@@H]2[C@@H](C)[C@@H](O)C[C@H]12 [Loganin],9.1%,

# Single records (already shown).
# COc1ccc(C[C@@H]2c3cc(Oc4cc(C[C@@H]5c6cc(O)c(OC)cc6CCN5C)ccc4O)c(OC)cc3CCN2C)cc1 [Isoliensinine] as listed: 229E Inhibition rate: 27.3%
# CC(=O)[C@H]1CC[C@H]2[C@@H]3CC[C@H]4CC(=O)CC[C@]4(C)[C@H]3CC[C@]12C [5a-Pregnane-3,20-dione] as listed: 229E Inhibition rate: 29.5%
# C[C@@H]1CCCC2=CC(=O)[C@@H]3[C@@H](C3(C)C)[C@]21C [Aristolone] as listed: 229E Inhibition rate: 29.3%
# COc1ccc(OC)cc1 [1,4-Dimethoxybenzene] as listed: 229E Inhibition rate: 21%
